# Assay results taken from the supplement of paper PMC3334620.
# In all, about 33,000 sequences were measured (“E-score (-0.5 to 0.5)”: median about -0.016, highest 2% from about 0.3 on). The list shows a part of the results.
# Target: T1, Yer184c (UniProt P39961)
# T1 sequence: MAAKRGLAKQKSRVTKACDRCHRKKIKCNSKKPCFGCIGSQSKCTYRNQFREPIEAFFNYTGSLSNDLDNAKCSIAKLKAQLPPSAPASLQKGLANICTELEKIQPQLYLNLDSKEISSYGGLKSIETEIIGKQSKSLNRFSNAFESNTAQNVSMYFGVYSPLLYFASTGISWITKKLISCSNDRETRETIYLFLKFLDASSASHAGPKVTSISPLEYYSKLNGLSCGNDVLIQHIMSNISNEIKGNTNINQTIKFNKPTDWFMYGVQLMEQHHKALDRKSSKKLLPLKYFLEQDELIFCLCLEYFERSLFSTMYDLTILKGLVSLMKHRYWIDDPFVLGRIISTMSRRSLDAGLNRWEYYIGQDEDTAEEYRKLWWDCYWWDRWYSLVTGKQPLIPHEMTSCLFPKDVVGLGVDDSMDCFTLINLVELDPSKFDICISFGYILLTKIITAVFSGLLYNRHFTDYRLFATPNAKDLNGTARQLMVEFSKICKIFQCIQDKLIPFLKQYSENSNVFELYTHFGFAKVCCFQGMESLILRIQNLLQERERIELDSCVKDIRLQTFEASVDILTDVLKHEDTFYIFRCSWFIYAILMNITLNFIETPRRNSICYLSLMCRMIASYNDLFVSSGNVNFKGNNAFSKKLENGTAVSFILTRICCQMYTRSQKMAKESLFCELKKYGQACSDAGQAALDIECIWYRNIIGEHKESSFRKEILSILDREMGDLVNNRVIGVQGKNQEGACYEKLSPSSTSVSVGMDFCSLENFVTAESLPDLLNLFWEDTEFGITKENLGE
# Experiment: PBM E-score (8-mer binding enrichment) (E-score (-0.5 to 0.5)); higher = stronger / more preferred TF binding
# Details: protein concentration: 100 nM; construct: GST-full length
# Summary of the method: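 Universal all-10-mer Agilent arrays, fresh or stripped once, were converted to double-stranded form by primer extension. GST-tagged yeast transcription factors from PURExpress in vitro transcription/translation, full-length or DNA-binding domain only, were applied at about 100-200 nM and detected with fluorescent anti-GST. After masliner normalisation, the Universal PBM Analysis Suite scored each ungapped eight-base word together with its reverse complement by E-score.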
row,Sequence,PBM E-score
1,ACCGTGTC,0.069
2,CCAAGGCA,-0.126
3,ACACTTCC,0.0751
4,AATGTCGC,-0.114
5,GGGTCGAC,-0.0694
6,CTCCGGCA,0.359
7,ATTTCTCA,0.099
8,TCAAATAA,0.197
9,ATGGGTTC,-0.159
10,AGGGTATA,0.00268
11,ACTGTAGA,0.00065
12,CGGGGTAC,-0.0331
13,CAGGTCGC,-0.232
14,GCCTATCA,-0.113
15,ATGTGATC,0.15
16,CGTATAAA,0.311
17,GGTCGCAA,0.0718
18,GCGGGGGA,-0.255
19,ATCACTTG,-0.155
20,CCATCACC,-0.211
21,ATATAGGA,-0.0864
22,ACTCAGTA,0.0602
23,GACTCAGC,-0.222
24,CCACAAGC,-0.273
25,CAACGCCG,0.294

# Taken from the results shown for reference:
row,Sequence,PBM E-score
2,CCAAGGCA,-0.126
3,ACACTTCC,0.0751
4,AATGTCGC,-0.114
5,GGGTCGAC,-0.0694
6,CTCCGGCA,0.359
7,ATTTCTCA,0.099

# 4 entries from above, with bars between the fields:
row | Sequence | PBM E-score
22 | ACTCAGTA | 0.0602
23 | GACTCAGC | -0.222
24 | CCACAAGC | -0.273
25 | CAACGCCG | 0.294

# Continuation:

row,Sequence,PBM E-score
1,CCGTGTAA,0.0462
2,CTACTCAA,0.113
3,AAGGCACC,-0.146
4,GCGGGGCA,-0.0118
5,CAGCTTTC,-0.151
6,AACAGAAG,0.0218
7,TAAGGCCA,-0.113
8,GCGGTGAC,-0.129
9,CTACGCGC,0.0464
10,GCGATTGA,-0.114
11,ACAGTTCT,-0.0571
12,CGAGCAAG,-0.14
13,TCTGCGAA,-0.186
14,ACGTGTCA,-0.0719
15,ACCTCGGG,0.00401
16,GAGGGTAA,-0.122
17,ACTCAATG,-0.0468
18,ACGATTCT,-0.0237
19,GTTTTATA,0.141
20,ACAAAACC,0.129
21,GACAGATC,0.0707
22,AACTCCCT,-0.179
23,CATTTATC,-0.0411
24,GCATCTAC,0.013
25,CTGCTCTC,-0.13

row,Sequence,PBM E-score
1,GACGACCC,-0.102
2,CGCCGTAC,0.0234
3,ACTCCGAG,0.233
4,AACTCAAG,0.16
5,ACTTGGCG,-0.15
6,GCGACCCC,-0.265
7,AGTTGGTA,0.042
8,CGAAAGCG,-0.221
9,AATGGAAC,0.176
10,AAGAATAG,0.0736
11,ACCAGAGC,-0.0444
12,GGGACATA,-0.048
13,ATCTCATG,-0.0834
14,CCTTGTCG,-0.108
15,AGGGCTCC,-0.297
16,GCAAAGAC,-0.0156
17,AACAGACG,-0.0417
18,AAACTTCG,0.0643
19,ACATCGGC,0.146
20,GCATTCAC,0.189
21,ACAATAGT,-0.0128
22,AAGAATAA,0.0383
23,GTCGTATA,0.109
24,AAGGAGCT,-0.237
25,CTACATGC,-0.0715

row,Sequence,PBM E-score
1,ACTTGGAA,-0.017
2,CCAGACGA,-0.0476
3,ATCTGGCA,0.141
4,ACGGCAAG,0.0759
5,AATGCCAC,-0.209
6,GTTGATCA,0.13
7,CCAAAAGG,-0.136
8,GAATAGAC,0.0134
9,GTGGGTGA,-0.0808
10,ACTGATGA,-0.0434
11,GAAACCGA,0.146
12,CCTCAATC,0.102
13,ACATAATA,0.17
14,AATCTAGG,0.0186
15,ACAGTGTG,-0.137
16,AGCGTGTA,-0.0339
17,CCAGCAGA,-0.0266
18,CTGCAAGC,-0.072
19,CATCGGAG,0.00534
20,CTGATCAA,-0.0456
21,CAGATCTG,0.00364
22,AATTAAGT,0.221
23,CGACAAAC,0.0595
24,AATTCAGA,0.118
25,CGTCGTAC,-0.124

row,Sequence,PBM E-score
1,ACTGGAGC,-0.23
2,GGCACGAA,0.0418
3,CAAAAGCG,0.0788
4,GGAATTCA,0.133
5,ACAAAACT,0.144
6,CACGGGGG,-0.231
7,TGACCTCA,-0.0893
8,CTTGGCAA,-0.107
9,CAATGCTG,-0.1
10,GGAGTACA,-0.0518
11,CCGTTCTC,0.0111
12,AGAGGGTA,-0.278
13,AACTGCTG,-0.0635
14,AAATAGGA,0.142
15,CGCAGCCG,0.0498
16,GATAATTA,0.318
17,CACTGACG,-0.14
18,CGCTCAAA,-0.0389
19,TAAGCGGA,0.105
20,CGTTAGCC,0.0792
21,ACGCCACT,-0.069
22,CAGAACTA,-0.00112
23,CCCAACCC,-0.249
24,AGCTACCG,-0.108
25,AGTGTACG,-0.0983

# Some values from above:
# PBM E-score, CAAAAGCG reads 0.0788
# PBM E-score, CGTTAGCC reads 0.0792
# PBM E-score, GGAATTCA reads 0.133
# PBM E-score, CACGGGGG reads -0.231
# PBM E-score, AGCTACCG reads -0.108

# The list goes on:

row,Sequence,PBM E-score
1,ATCCAATA,0.105
2,CGCTGACG,-0.314
3,TATGTGCA,-0.0853
4,TATAAACA,0.272
5,GTCTGCCA,-0.095
6,ACTGGCCA,-0.212
7,GTCTCCGA,0.243
8,AAATTAAA,0.285
9,ACGAAACA,0.154
10,AATCTGCC,0.0339
11,GCATCAGA,0.1
12,GTACCCTA,-0.204
13,AACGTCTT,-0.0983
14,GTCACAAA,0.186
15,AATTCTCT,-0.183
16,CCCCGGAG,0.135
17,CAGTTTGA,0.0222
18,GCCGCTCC,-0.0803
19,ACACCTGT,-0.132
20,CGCTGCAA,0.0112
21,AAGGCGCT,-0.131
22,ATCGCGAC,0.00425
23,AGTTCGCA,0.0278
24,AACCGCAT,0.175
25,CCCAACGG,-0.0834

row,Sequence,PBM E-score
1,AGAGGACA,-0.0658
2,ATCTAACC,0.0612
3,CGAAGGCG,-0.0487
4,GTGTCATA,0.0166
5,AATTGGCT,0.0616
6,CGTTTAAC,-0.0473
7,ACTAAACT,0.0129
8,CGAGCTAG,0.113
9,ATGACAAA,0.0561
10,CCTGAGAG,-0.221
11,AAGCCACC,-0.342
12,ACCCGTTC,-0.0341
13,CCGAGCCC,0.116
14,CGCCGGTC,0.228
15,ATAGTTAA,-0.0448
16,GATTGTGA,0.144
17,GTTGAGCA,-0.116
18,GAAAGGAC,0.173
19,GACAGCTC,-0.206
20,TACTCTCA,-0.0149
21,CGAAGCGC,0.0913
22,GACAGGCC,-0.104
23,GCGGCAGA,0.0458
24,CGAAAGGC,0.0427
25,AGTTTGCC,0.0766

row,Sequence,PBM E-score
1,AAAATTGA,0.0736
2,CCCTACCA,-0.0555
3,CTACTGTA,-0.0357
4,TGGTCTAA,-0.11
5,GGGCTGGA,-0.0978
6,CGTTCAAG,0.111
7,ACAGTGGC,-0.16
8,GCAGAGGA,-0.0548
9,CAGTAACG,0.0386
10,TACCTCGA,0.0161
11,TCCCATAA,-0.0959
12,AACACAGT,-0.0644
13,CCACTTAA,0.0753
14,ATTTACCA,0.178
15,ACAGTTGC,-0.0277
16,CCGCTTCC,0.0709
17,AGGTGCTC,-0.384
18,AAGAGATC,-0.0883
19,CATCTACG,0.0913
20,AAACTCGC,0.0869
21,AGCCCCAC,-0.286
22,AGTGGAGC,-0.121
23,ATAAATCA,0.171
24,TATGCCAA,-0.139
25,CCGGTGAA,0.248

row,Sequence,PBM E-score
1,CGGAGCTA,0.0653
2,AGGTGGCA,-0.201
3,CTACGGAA,0.205
4,AACTTGAC,0.0553
5,CCCTGCAC,-0.199
6,GCATTAGA,0.0629
7,GCGCCGAC,0.206
8,GGATACCA,0.033
9,GATACCGA,0.0941
10,GAGAGTAC,-0.0468
11,AGGGAGTC,-0.235
12,AAGGTCGT,-0.306
13,AAAGCCTC,-0.139
14,CCATTGCA,-0.107
15,CCGTAGCC,-0.109
16,ACTTACTG,-0.0959
17,CAATTGAC,-0.0212
18,CTCGAACA,-0.00701
19,ACCGACCG,0.132
